Measurements: US20040205843A1
No constants are given. Whether binding was seen depends on the method and setting. Binding seen in cells or lysates may run through a third protein. Some entries that bind do so weakly or less than the wild type.

By UniProt entry, the sequences of proteins in these tests, tags left out. Where a name states a change or a piece, a line headed by the entry shows the natural chain unless it says otherwise.
UniProt P03567: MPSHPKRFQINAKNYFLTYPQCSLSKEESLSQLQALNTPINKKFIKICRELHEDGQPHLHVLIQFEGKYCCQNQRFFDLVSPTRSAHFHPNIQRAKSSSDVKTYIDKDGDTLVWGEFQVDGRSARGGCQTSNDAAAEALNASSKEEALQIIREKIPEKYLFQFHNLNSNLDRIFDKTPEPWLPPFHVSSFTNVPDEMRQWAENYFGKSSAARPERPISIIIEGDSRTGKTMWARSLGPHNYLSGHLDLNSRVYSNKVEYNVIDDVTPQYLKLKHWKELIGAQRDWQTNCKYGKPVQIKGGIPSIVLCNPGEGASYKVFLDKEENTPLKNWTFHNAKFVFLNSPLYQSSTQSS

Target: Full length GST-AL1 1-352 (tomato golden mosaic virus (TGMV)) (UniProt P03567)
Assay: GST co-purification from insect cells, immunoblot

In the case of “AL1 160-352 (from UniProt P03567 160-352)”, the binding is reported as “binds”.
